Source: US6994856 (Genentech, dated 2006)
These are yes or no findings as the source states them, for the method shown. For some of these results: Binding seen in cells or lysates may run through a third protein. Some binding calls cover weakened binding; strength is not graded here. Where a sequence is shown, tags or fusion partners need not be part of it.

Assays:
[1] = biological target: T1, ErbB4.Fc (UniProt Q15303 26-651, limits assumed); test: co-immunoprecipitation in vitro
T1 construct: also called soluble form of ErbB4 receptor; immobilized soluble ErbB4 receptor; not shown: Fc part, not described; the protein was captured on the plate by goat anti-human antibody
T1 sequence (looked up): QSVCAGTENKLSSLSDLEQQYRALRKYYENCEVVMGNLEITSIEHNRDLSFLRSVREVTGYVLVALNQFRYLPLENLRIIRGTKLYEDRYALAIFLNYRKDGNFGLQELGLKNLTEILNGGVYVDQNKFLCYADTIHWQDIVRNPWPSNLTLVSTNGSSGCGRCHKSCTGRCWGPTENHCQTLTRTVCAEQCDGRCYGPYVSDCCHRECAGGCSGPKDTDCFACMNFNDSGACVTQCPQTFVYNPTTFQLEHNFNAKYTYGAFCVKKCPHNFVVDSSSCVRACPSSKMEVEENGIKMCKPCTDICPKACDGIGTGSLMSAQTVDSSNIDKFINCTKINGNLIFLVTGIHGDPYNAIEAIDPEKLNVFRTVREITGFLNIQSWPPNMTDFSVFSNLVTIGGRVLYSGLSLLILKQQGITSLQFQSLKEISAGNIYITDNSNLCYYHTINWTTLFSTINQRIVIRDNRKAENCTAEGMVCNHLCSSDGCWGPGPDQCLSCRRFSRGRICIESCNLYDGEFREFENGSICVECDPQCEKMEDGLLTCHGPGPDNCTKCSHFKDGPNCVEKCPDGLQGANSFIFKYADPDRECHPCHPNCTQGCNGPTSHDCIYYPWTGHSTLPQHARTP

[2] = biological target: T1, ErbB4.Fc; test: displacement binding assay, Fig. 7
[3] = biological target: human ErbB4 receptor on cells (human) (UniProt Q15303); test: FACS on K562^erbB4 cells, anti-gD detection
[4] = biological target: human ErbB4 receptor on cells (human) (UniProt Q15303); test: restates the FACS result of the preceding section

Measured: binding

B1: NRG3^EGF.Fc (Fc fusion, not shown: small tags and cut ends; a dimerising Fc or GST)
chain: ERSEHFKPCRDKDLAYCLNDGECFVIETLTGSHKHCRCKEGYQGVRCDQFLPKTDSILSDP
modifications: radio-iodinated (125I, lactoperoxidase method) where used as tracer
binds: [1] | [2] | [3] | [4]
